No constants are given. Whether binding was seen depends on the method and setting. Binding seen in cells or lysates may run through a third protein. Some results given as binding are weak or reduced against the parent protein; the word gives no strength.
Target: T1, RNA‐binding protein Quaking‐5 (QKI‐5) (human (endogenous in H1299 and H460)) (UniProt Q96PU8)
T1 sequence: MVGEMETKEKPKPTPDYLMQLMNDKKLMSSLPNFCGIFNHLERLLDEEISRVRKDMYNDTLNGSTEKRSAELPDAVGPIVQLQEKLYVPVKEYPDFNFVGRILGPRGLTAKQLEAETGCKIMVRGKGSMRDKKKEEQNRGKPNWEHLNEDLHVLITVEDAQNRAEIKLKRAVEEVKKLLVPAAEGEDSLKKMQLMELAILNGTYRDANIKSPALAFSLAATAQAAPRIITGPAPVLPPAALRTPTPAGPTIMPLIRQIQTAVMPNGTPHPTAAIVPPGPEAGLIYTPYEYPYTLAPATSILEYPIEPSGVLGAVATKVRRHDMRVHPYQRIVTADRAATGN
Test: co-IP; anti‐QKI‐5 antibody with protein A/G agarose beads, overnight at 4°C, RIPA lysates of H1299 and H460 cells; Western blot; input and IgG as controls

Amino acid sequences for entries named in this document (tags omitted).
UniProt P38936: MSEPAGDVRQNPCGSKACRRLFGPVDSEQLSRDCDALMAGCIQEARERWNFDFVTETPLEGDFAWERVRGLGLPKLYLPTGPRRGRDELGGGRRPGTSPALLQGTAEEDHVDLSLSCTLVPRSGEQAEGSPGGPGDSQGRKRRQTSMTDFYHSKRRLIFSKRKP

## p21^Waf1/Cip1 (p21) (from UniProt P38936 1-164)
  binding: binds

Source: article PMC9972157
